The other results are listed elsewhere or left out. Shown are side measurements of this screen, not its main read-out; they come without a call. Most of these compounds were active or inconclusive in the main read-out, so they are no random draw. Words in brackets tell the shape of the fitted curve; partial curves, single points and poor fits give uncertain potencies.
Assay: qHTS Assay for Modulators of Lamin A Splicing
Conditions: HeLa LMNA splicing GFP/RFP minigene ratio, 48 h
Outline: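 Read-out is the ratio of GFP to DsRed2 object intensity, acquired by 488 nm laser-scanning cytometry on HeLa lamin A-EGFP minigene reporter cells. Compound incubation 48 hrs at 37 °C in Opti-MEM with 2% FBS; DMSO 0.5% final.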

[1] = measured here: GFP splicing reporter channel
[2] = measured here: RFP viability control channel

SMILES | AC50 [1] | AC50 [2]
CCN(CC)C(=O)Cn1ncc2c([nH]c3ccc(C)cc32)c1=O | 0.224 µM [falling, full curve, poor fit] | –
Cc1ccnc(NS(=O)(=O)c2ccc(Oc3ccccc3)cc2)c1 | 11.2 µM [rising, partial curve] | 12.6 µM [rising, partial curve]
CC1(C)CC(=O)C2=C(C1)c1c(ccc3ccccc13)NC2c1ccco1 (stereo not given) | 28.2 µM [rising, partial curve, poor fit] | 14.1 µM [rising, partial curve, poor fit]
NC(=O)NC(=O)COC(=O)CC12CC3CC(CC(C3)C1)C2 | – | 6.31 µM [falling, partial curve, poor fit]
O=C(NNC(=O)c1cccnc1SCc1cccc([N+](=O)[O-])c1)c1ccccn1 | – | 3.16 µM [rising, full curve]
Nc1cc[n+](CC(=O)c2ccc3c(c2)OCCO3)cc1 | – | 17.8 µM [rising, single point]
Cc1cc(/C=N/n2cnnc2)c(C)n1-c1cccc(C(=O)O)c1 | 0.501 µM [falling, full curve] | –
CC(C)(C)c1ccc(OCc2cnc(Cl)s2)cc1 | 0.1 µM [falling, full curve, poor fit] | 0.501 µM [falling, partial curve, poor fit]
O=C(COc1ncnc2ccccc12)NCC1CCCO1 (stereo not given) | 3.98 µM [rising, full curve, poor fit] | 10 µM [rising, partial curve, poor fit]
Cc1ccc(O)c(N=CC2=C(O)c3ccccc3C2=O)c1 | 14.1 µM [rising, single point] | 20 µM [rising, single point]
O=S(=O)(c1ccc2c(c1)OCCO2)N1CCC(n2nnc3cc(C(F)(F)F)ccc32)CC1 | – | 17.8 µM [rising, partial curve]
COc1ccc(-c2cc(C(=O)Nc3cc(C)n(Cc4ccc(Cl)cc4)n3)no2)cc1OC | 0.501 µM [rising, full curve] | 1.26 µM [rising, full curve]
Cc1ccc(C)c(C(=O)C(C)OC(=O)c2cccn2C)c1 (stereo not given) | – | 8.91 µM [rising, partial curve, poor fit]
COc1ccccc1OCC(=O)Nc1ccc(S(=O)(=O)N2CCCCCC2)cc1 | 31.6 µM [rising, single point] | 31.6 µM [rising, single point]
C=CCN1C(=O)C(C)S/C1=N\S(=O)(=O)c1ccc(Cl)cc1 (stereo not given) | 6.31 µM [falling, single point] | –
CCN(CC)C(=O)C1CCN(Cc2cccc(OCc3ccccc3)c2)CC1 | – | 35.5 µM [rising, single point]
COc1ccc(CN(Cc2ccccn2)C(=O)CN2C(=O)C(C)Oc3ccccc32)cc1 (stereo not given) | – | 35.5 µM [rising, single point]

A few values from the results shown:
AC50 [2], `O=S(=O)(c1ccc2c(c1)OCCO2)N1CCC(n2nnc3cc(C(F)(F)F)ccc32)CC1` is entered as 17.8 µM [rising, partial curve]
AC50 [2], `NC(=O)NC(=O)COC(=O)CC12CC3CC(CC(C3)C1)C2` is entered as 6.31 µM [falling, partial curve, poor fit]

Continued.

SMILES | AC50 [1] | AC50 [2]
COc1ccc(CNC2CC(=O)N(C)C2=O)cc1 (stereo not given) | 0.00501 µM [rising, full curve, poor fit] | 0.00501 µM [rising, full curve, poor fit]
O=C(Nc1nccs1)c1ccc([N+](=O)[O-])cc1 | – | 0.2 µM [falling, full curve, poor fit]
c1coc(CNc2nc3nonc3nc2NCc2ccco2)c1 | 12.6 µM [rising, partial curve, poor fit] | 12.6 µM [rising, single point]
COc1ccc(-c2ocnc2C(=O)NCc2nn(-c3ccccc3)nc2C)cc1 | 31.6 µM [falling, single point] | 14.1 µM [falling, single point]
CCCCc1nc2ccccc2c(=O)n1NC(=O)c1c(O)c2c(n(CC(C)C)c1=O)CCCC2 | 10 µM [rising, partial curve] | 10 µM [rising, partial curve]
CC(C)c1ccc(Nc2cc(C(=O)NCCCN(C)Cc3ccccc3)c3ccccc3n2)cc1 | 15.8 µM [falling, single point] | 20 µM [falling, partial curve, poor fit]
COc1ccc2[nH]cc(CCNc3ccnc(-c4ccccc4C(F)(F)F)n3)c2c1 | 14.1 µM [falling, partial curve] | –
Oc1ccc(O)c(Cc2nc3ccccc3s2)c1 | 10 µM [falling, partial curve] | 11.2 µM [falling, partial curve]
COc1cc(/C=C2\SC(=O)N(Cc3ccc(F)cc3)C2=O)cc([N+](=O)[O-])c1O | 35.5 µM [rising, single point] | 35.5 µM [rising, single point]
O=C(N/N=C/c1ccc(O)c(O)c1)c1cccc(S(=O)(=O)N2CCCCC2)c1 | 12.6 µM [falling, single point] | –
CN(C)c1ccc(NC(=O)c2cccc(C(=O)Nc3ccc(N(C)C)cc3)n2)cc1 | 35.5 µM [rising, single point] | 25.1 µM [rising, single point]
CC(C)(C)C(=O)N1CCN(c2c(Cl)cccc2[N+](=O)[O-])CC1 | – | 10 µM [rising, partial curve, poor fit]
C=CCc1c(C)c(C#N)c2nc3ccccc3n2c1NCCN(C)C | 11.2 µM [rising, single point] | 12.6 µM [rising, single point]
CCOc1ccc(NC(=O)CN(c2cc(C)cc(C)c2)S(=O)(=O)c2c(C)noc2C)cc1 | – | 10 µM [rising, partial curve, poor fit]
Cc1csc(=Nc2ccc(S(=O)(=O)N3CCOCC3)cc2)n1Cc1ccco1 | 12.6 µM [rising, partial curve] | 25.1 µM [rising, single point]
CC(Oc1ccccc1F)C(=O)Nc1ccc2ccccc2c1 (stereo not given) | – | 8.91 µM [rising, partial curve]

From PubChem BioAssay AID1487 (National Center for Advancing Translational Sciences (NCATS), 2009)
